Test results as given in US20220249563A1 (LEGEND BIOTECH IRELAND, published 2022).
Changes are numbered by the printed parent chain. No constants are given. Whether binding was seen depends on the method and setting. Some binding calls cover weakened binding; strength is not graded here.

The chains behind the UniProt entries cited, without tags or fusion partners. Where a name states a change or a piece, a line headed by the entry shows the natural chain unless it says otherwise. A line that says so, or that is headed by a name, gives the form on record, which may keep a tag or linker.
rhesus DLL3 (F6TFV4, form named): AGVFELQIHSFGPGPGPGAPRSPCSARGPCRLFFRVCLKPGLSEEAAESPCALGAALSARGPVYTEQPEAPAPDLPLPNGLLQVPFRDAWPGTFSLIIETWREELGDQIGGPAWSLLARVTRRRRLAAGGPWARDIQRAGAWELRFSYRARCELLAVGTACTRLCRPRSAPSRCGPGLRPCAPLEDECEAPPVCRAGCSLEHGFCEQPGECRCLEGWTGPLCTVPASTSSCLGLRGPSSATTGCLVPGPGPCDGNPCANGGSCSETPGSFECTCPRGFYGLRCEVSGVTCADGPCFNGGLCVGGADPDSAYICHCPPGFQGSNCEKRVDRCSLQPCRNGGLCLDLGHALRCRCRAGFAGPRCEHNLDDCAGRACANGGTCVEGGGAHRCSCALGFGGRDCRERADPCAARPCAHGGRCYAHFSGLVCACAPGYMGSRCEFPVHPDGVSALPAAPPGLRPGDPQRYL

B1: AS63987 (VHH)
VHH: QVRLVESGGGSVQAGGSLRLSCEATGYRNCMAWFRQAPGKEREGVAVIYTPSGITDYASSVKGRFTISQNNARNTQYLQMNSLKPEDTAMYYCAADRPFVCNIANMRRSSNWGRGTQVTVSS
notes: camel sdAb; crude E. coli supernatant
B2: AS64120 (VHH)
VHH: QVRLVESGGGSVQAGGSLRLSCETSRYIYGNNCMAWFRQAPGKEREGVASIYPAGGRPYYADSVKGRFTISQDNAKNTVYLQMDSLKPEDTAMYYCAARSFSIADCATQSGITRSNFAYWGQGTQVTVSS
notes: as for B1
B3: AS63951 (VHH)
VHH: B2 VHH with R3H, V5M, S21A, Y27D, D105V, Q109R
notes: as for B1
B4: AS64093 (VHH)
VHH: B2 VHH with R3H, E23A, P58T, M83I, A104G, D105V, R114W
notes: as for B1
B5: AS64118 (VHH)
VHH: QVQLAESGGGSVQAGGSLRLSCAASGYTYSACRMAWYRQAPGKERELVSFINSAGSTYYADSVKGRFAISRDNAKTTVYLQMNALKAEDTAIYYCNTWDSSCRFQYWGQGTQVTVSS
notes: as for B1
B6: AS64124 (VHH)
VHH: QVKLVESGGGSVQTGGSLRLSCAVSTYTPSNNYMGWFRQAPGKEREGVAAIATIGGTTRYADSVKGRFTISQDGAKNTIYLQMNGLKPEDTAMYYCAAGRPYSLPLPLPLESGAYRYWGQGTQVTVSS
notes: as for B1
B7: AS64135 (VHH)
VHH: QVKLVESGGGSVQAGGSLRLSCVASTSTYCRYYMRWYRQAPGKEREFVSAMQPDGTTSYSDSVKGRFTMSQDRANNMLYLQMNSLRPEDTAMYYCKRDPMGGSRTPCTSAWGQGTQVTVSS
notes: as for B1
B8: AS64163 (VHH)
VHH: QVRLVESGGGSVQAGGSLRLSCAVSGYRYRWNCMAWFRQAPGKEREGVAAISTGSGSTYYAGSVKGRFTISQDNAKNMYLQMNSLKPEDTAMYYCAADPSVCPGGMWYSKEYRYWGQGTQVTVSS
notes: as for B1
B9: AS63948 (VHH)
VHH: QVQLVESGGGSVQAGGSLRLSCTASGYTYRYLYMGWFRQTPGKEREGVACIYTGSGSTGYADSVKGRFTISQDNAENTVYLQMNSLKPEDTAMYYCAAASPRWGGTCRRWSEYNYWGQGTQVTVSS
notes: as for B1
B10: AS64154 (VHH)
VHH: B9 VHH with V5K, E76K, S85N, A99S, E112Q
notes: as for B1
B11: AS64182 (VHH)
VHH: B9 VHH with Q3H, V5M, Y27Q, Y29S, E76K, M83T, A99S, R102H, N114K
notes: as for B1
B12: AS64473 (VHH)
VHH: B9 VHH with Q3R, G35A, S57T, E76K, K87N, P88A, A99S, R102Q
notes: as for B1
B13: AS64183 (VHH)
VHH: QVHLVESGGGSVQAGGSLRLSCAASGHTYSANCMAWFRRAPGKEREWVASVYTDDDSTMYTDSVKGRFTIFQDNAKNTVYLQMNSLKPEDTGMYICAADLSGGPAGCGYTHWGQGTQVTVSS
notes: as for B1
B14: AS63984 (VHH)
VHH: QVKLVESGGGSVQAGGSLRLSCAASGYTYSSNFMGWFRQAPGKEREGVATIVSGGGTTYYADSVRGRFTISQDNAKNTVYLQMNSLKPEDTAMYYCAAGGPVTNAPRWYPLRPPGYNYWGQGTQVTVSS
notes: as for B1
B15: AS64207 (VHH)
VHH: B14 VHH with Q1E, K3Q, V102P, A105G, P106A, R107K
notes: as for B1
B16: AS64276 (VHH)
VHH: QVHLMESGGGSVQAGGSLSLSCVVSGYTGSSRCMAWFRQAPGKEREAVAQIFTGRGTTGYADSVKGRFTISQDNAKNTVYLRMNSLRPEDTAIYYCAASLGPGRGACGYNYWGQGTQVTVSS
notes: as for B1
B17: AS63997 HCAb (Fc fusion, not shown: a dimerising Fc or GST)
chain: QVRLVESGGGSVQAGGSLRLSCAGSFSGYGVSTMAWFRQAPGKEREGVAAITVGSGNTYYADSVKGRFTISRDNAKRTVFLQMNSLKPEDTAMYYCAVGYLSGGSWDVPGRYNYWGQGTQVTVSS
notes: camel sdAb fused with human IgG1 hinge and Fc (chimeric HCAb), crude HEK293 medium
B18: AS64336 (VHH)
VHH: QVQLVESGGGSVQAGGSLRLSCTTSGRTYSSCSMGWYRQAPGKERELVSHIFSDGSRYYADSVKGRFTISQDNAKNTVYLQMNSLKPEDTAMYYCNRRTGWAPRCAVPGYWGQGTQVTVSS
notes: as for B1
B19: AS64346 (VHH)
VHH: QVHLVESGGGSVQAGGSLRLSCAASGYTYFMGWFRQAPQKEREWVATIGTGDIFNGAAYYVDSVKGRFAISQDNAKNTVYLQMNSLKPEDTAVYVCAAVQSKSSNYVLRDASTYNYWGQGTQVTVSS
notes: as for B1
B20: AS64420 (VHH)
VHH: EVQLVESGGGSVQAEGSLRLSCAASGDTSRSVWMGWARQVPGKEREVVATISTAGGSTWYTDSVKGRFTISQDNAKNTVYLQMNSLKPEDTAIYYCAARSRYATYWGQGTQVTVSS
notes: as for B1
B21: AS64475 (VHH)
VHH: QVQLQESGGGSVQAGGSLRLSCAASGYTWSRNWMGWFRQAPGKEREGFATITISGGSTWYADSVKGRFTISLDNAGNTVYLQMNSLKPEDTAMYYCAARDTARTYWGQGTQVTVSS
notes: as for B1
B22: AS64513 (VHH)
VHH: EVQLVESGGGSVQAGGSLRLSCVASDYPYIDNCMGWFRQGPGKEREGVAAACTGGGSTYYADSVKGRFTISRDNAKNTVYLQMNSLKPEDTDVYYCATGYYSGSGPGYLLPWRYNYWGQGTQVTVSS
notes: as for B1
B23: AS64562 (VHH)
VHH: EVQLVESGGGSVQAGGSLRLSCAASGYTARRDFMAWFRQVPGKEREGVAVIHTGGDTTYYADSVKGRFTISRDNAQNIMNLQMNSLKPEDTAMYYCAAGFRPRGGGYTGDVLAQAAAYNYWGQGTQVTVSS
notes: as for B1
B24: AS64583 (VHH)
VHH: EVQLAESGGGLVQAGGSLRLSCTASGFTIAVYTMGWFRQAPGKEREGISCTSWAGGRTYTADSVKGRFTISRDNAKNTLYLQMNSLKPEDTAMYYCAAKAHPDCSGDWSPSGYEYWGQGTQVTVSS
notes: as for B1
B25: AS64594 (VHH)
VHH: QVHLVESGGGSVQAGGSLRLSCAASGYTYNSNYMGWFRQAPGKEREGVALIYTGGGSTYYADSVKGRFTISRDNAKNTVYLQMNSLKPEDTAMYYCSVRTQTRNYWGQGTQVTVSS
notes: as for B1
B26: AS64605 (VHH)
VHH: QVKLVESGGGSVQAGGSLRLSCAVSRYPYSSICMGWFRQAPGKESEGVARIYTGTGSTWYTDSVKGRFTIARDNAQNTVYLQMNSLKPEDTAMYYCAARSNSYSYSSCDYGPLTRGGYNFWGQGTQVTVSS
notes: as for B1
B27: AS64047 HCAb (Fc fusion, not shown: a dimerising Fc or GST)
chain: QVHLVESGGGSVQAGGSLRLSCAASQYVYRWDLMGWFRQAPGKEREAVAAVYTGDGITYYADSVKGRFSISQDNAKNTVYLQMNSLKPEDTGMYFCAAGFVSGGRWNQSYRYKYWGQGTQVTVSS
B28: AS68121 (VHH)
VHH: EVQLAESGGGSVQAGGSLRLSCDASGYTYSRNCMGWFRQAPGKEREGVAAFYTDYIRFGRTYYADSVKGRFTIFQDNAKNTVYLQMNSLKPEDTAMYYCAADPGSRTDDSCGTSYNKGNFGYWGQGTQVTVSS
notes: as for B1
B29: AS68170 (VHH)
VHH: QVQLVESGGGSVQAGGSLRLSCTASGYTYRSNCMGWFRQAPGKEREGVATIYTGGGRNLYYADSVKGRFTISRDNAKNTLYLQMNSLKPEDSARYYCAAASDVAVGVNSCGGRTAGFDAWGQGTQVTVSS
notes: as for B1
B30: AS63964 (VHH)
VHH: QVRLVESGGGSVQAGGSLRLSCSASGYTYSYNNMGWFRQAPGNEREGVAAISGGRFTAYADSVKGRFTISRDNAENTLYLQMNNLKPEDTGMYYCAAEVVDPTWGSRDQRRYKYWGQGTQVTVSS
notes: as for B1
B31: AS64116 (VHH)
VHH: QVKLVESGGGSVQAGGSLRLSCAASGYIYSCVGWFRQAPGKEREGVAGISTGGGGTVYADSVKGQFTISRDNAKNTVYLQMDSLKPEDTAMYYCAADRWNSFANCGAWGRYTYWGQGTQVTVSS
notes: as for B1
B32: AS68270 (VHH)
VHH: QVQLAESGGGSVQAGGSLRLSCVASGYPSSTYYMLSMAWFRQAPGKEREGVAAITSGTGSTSYADSVKDRFTISKDYANNTLYLHINNLKPEDTAMYYCAAASGWIVPSRSLTANLYRYWGQGTQVTVSS
notes: as for B1
B33: AS68320 (VHH)
VHH: QVHLVESGGDSVQAGGSLRLSCAASGYTYNTNYMGWFRQAPGKEREGVAAIYRHSGNTAYADSVKGRFTISQDYAKNTVYLQMNSLKPEDTAMYYCAAGRAGPWALMRPTEFGYWGQGTQVTVSS
notes: as for B1
B34: AS68351 (VHH)
VHH: QVQLEESGGGLVQPGGSLRLSCAASGDTFRAYYMNWVRQAPGKGFEWVSGISASGGRTSYADSVKGRFTISRDNAKNTLYLQLNSLSTEDTGMYYCVKGAVRLSTSSVRDSSWGQGTQVTVSS
notes: as for B1
B35: AS75378 (VHH)
VHH: QVQLEESGGGSVQAGGSLRLSCVVSGNTRSTTYMGWFRQAPGKEREGVAIVYTGGRDTYYAASVKGRFTISQDNAKTTIYLQMNSLEPEDTAMYYCAARSYEYTYWGRGTQVTVSS
notes: as for B1

Molecular target: rhesus DLL3 (rhesus) (UniProt F6TFV4)
Assay: ELISA (protein), FACS (cells)

Binder	binding
B1	binds
B2	binds
B3	binds
B4	binds
B5	binds
B6	binds
B7	binds
B8	binds
B9	binds
B10	binds
B11	binds
B12	binds
B13	binds
B14	binds
B15	binds
B16	binds
B17	binds
B18	binds

Binder	binding
B19	binds
B20	binds
B21	binds
B22	binds
B23	binds
B24	binds
B25	binds
B26	binds
B27	binds
B28	binds
B29	binds
B30	binds
B31	binds
B32	binds
B33	binds
B34	binds
B35	binds
